Laboratory results as given in publication PMC6017926.
For at least one entry, the source does not settle the construct or the ends of the probe. For some assays here: Negatives hold for the conditions tested. At least one verdict rests on a figure or table, not on a statement of the authors. For some assays here: Weaker means in comparison with the reference protein, sequence or condition of that experiment.

By UniProt entry, the sequences of proteins in these tests, tags left out. Where a name states a change or a piece, a line headed by the entry shows the natural chain unless it says otherwise.
UniProt P08047: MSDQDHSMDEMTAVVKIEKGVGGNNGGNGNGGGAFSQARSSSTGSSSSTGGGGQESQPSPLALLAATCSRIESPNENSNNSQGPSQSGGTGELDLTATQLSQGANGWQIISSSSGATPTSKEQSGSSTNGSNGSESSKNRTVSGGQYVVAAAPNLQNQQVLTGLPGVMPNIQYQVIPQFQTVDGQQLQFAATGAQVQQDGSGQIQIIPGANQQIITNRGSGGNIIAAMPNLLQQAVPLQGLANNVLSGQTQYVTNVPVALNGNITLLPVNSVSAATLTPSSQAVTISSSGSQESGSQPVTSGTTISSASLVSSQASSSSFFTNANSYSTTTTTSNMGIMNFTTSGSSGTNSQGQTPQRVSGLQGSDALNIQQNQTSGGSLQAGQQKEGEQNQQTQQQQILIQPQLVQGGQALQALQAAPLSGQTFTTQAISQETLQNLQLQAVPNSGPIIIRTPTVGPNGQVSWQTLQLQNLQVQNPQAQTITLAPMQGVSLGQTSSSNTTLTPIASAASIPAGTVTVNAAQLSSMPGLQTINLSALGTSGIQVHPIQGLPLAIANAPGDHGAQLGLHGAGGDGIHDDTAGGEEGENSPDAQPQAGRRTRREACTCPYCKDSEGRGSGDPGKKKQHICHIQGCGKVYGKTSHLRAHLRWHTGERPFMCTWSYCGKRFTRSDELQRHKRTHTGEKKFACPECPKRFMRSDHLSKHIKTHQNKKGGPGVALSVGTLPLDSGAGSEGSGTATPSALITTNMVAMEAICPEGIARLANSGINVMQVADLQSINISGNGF
UniProt P08515, whole entry: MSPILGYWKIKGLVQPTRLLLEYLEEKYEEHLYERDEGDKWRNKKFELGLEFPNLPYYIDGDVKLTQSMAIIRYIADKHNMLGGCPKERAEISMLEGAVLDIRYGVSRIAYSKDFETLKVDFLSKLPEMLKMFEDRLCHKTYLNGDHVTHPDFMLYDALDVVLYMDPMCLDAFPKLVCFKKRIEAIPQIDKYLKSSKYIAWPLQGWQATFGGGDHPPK

Tests used:
GST-SP1 = GST-SP1 (UniProt P08047); test: ELONA; details: recombinant protein, protein details: GST (N-terminal, pGEX2T), label: 5' biotin for ELONA, folded or branched DNA
GST tag = GST tag (UniProt P08515); test: ELONA; details: label: 5' biotin for ELONA; folded or branched DNA

Row | Sequence | binding result (GST-SP1; folded in 100 mM K+) | binding result (GST-SP1; folded in 100 mM Li+) | binding result (GST tag)
1 | CGGGCGCGGGAGGAAGGGGGCGGGAGC [BCL-2 G4 unmethylated] | binds | binds more weakly | –
2 | CGGGGCGGGGCGGGGGCGGGGGCG [HRAS2 G4 unmethylated] | binds | binds more weakly | –
3 | GGCGAGGAGGGGCGTGGCCGGC [c-KIT G4 unmethylated] | binds | binds more weakly | –
4 | GGGGCGGGCCGGGGGCGGGG [VEGF G4 unmethylated] | binds | binds more weakly | no binding
5 | TCGGGTTGCGGGCGCAGGGCACGGGCG [HRAS1 G4 unmethylated] | binds | binds more weakly | –
